Source: US11542234B2, “2-alkoxy-6-[18F]fluoronicotinoyl substituted lys-c(O)-glu derivatives as efficient probes for imaging of PSMA expressing tissues” (Universität zu Köln, priority 2018, dated 2023)
Some entries share one result that the patent states for a list of compounds. At least one structure is not confirmed: it was looked up by name or label, or the drawing left a doubt.

Tested on: PSMA^− PC-3 cells
Experiment: Cellular uptake in PSMA negative PC3 cells
Assay type: cell-based
Method: The PSMA specificity of the tracer uptake in LNCaP C4-2 was confirmed by complete inhibition with 2-PMPA (≤0.1% ID/10^5 cells). The enrichment of both tracers in PSMA^− PC3 cells was negligible (≤0.1% ID/10^5 cells).
PSMA^− PC-3 cells were cultured in RPMI-1640 medium supplemented with FBS (10%) and penicillin/streptomycin (1%). PSMA* LNCaP C4-2 cells were cultured in a mixture of DMEM: Ham's F-12K (Kaighn's) mediums (4:1) supplemented with FBS (5%), NaHCO3(3 g/L), insulin (5 μg/mL), triiodothyronine ([…]), transferrin (5 μg/mL), biotin (0.25 μg/ml) and adenine (25 μg/mL). Both cell lines were grown in 75 mL flasks containing 10 mL of the culture medium in a humidified atmosphere of 5% CO2/95% air at 37° C. for 4-5 days until they reached 80-90% confluency. Cells were seeded into 12-well plates (1×10^5 cells/well containing 1 mL medium) 24 h before the beginning of the cellular uptake experiments.
The corresponding PSMA specific PET probe was added to the cells (100-150 kBq/well) and the cells were incubated at 37° C. for 1 and 2 h. 2-(Phosphonomethyl)pentanedioic acid (2-PMPA; 100 μM/well) was used for blocking studies. Thereafter, the cells were washed two times with medium (1 mL), trypsinized, harvested and the accumulated radioactivity was measured in a gamma counter (Wizard 1470, PerkinElmer, Massachusetts, USA). […]

Row | SMILES | enrichment in PSMA^− PC3 cells
1 | COc1nc([18F])ccc1C(=O)NCCCC[C@H](NC(=O)N[C@@H](CCC(=O)O)C(=O)O)C(=O)O [2-MeO-[^18F]PSMA] | ≤ 0.1 % ID/10^5 cells
2 | O=C(O)CC[C@H](NC(=O)N[C@@H](CCCCNC(=O)c1ccc([18F])nc1)C(=O)O)C(=O)O [[^18F]DCFPyL] | ≤ 0.1 % ID/10^5 cells
